In PubChem BioAssay AID504444 (National Center for Advancing Translational Sciences (NCATS), 2011):
The whole screen tested about 360,000 compounds, of which about 7,500 (2.1%) were called active. The inconclusive results got no clear call from the source; some entries with a clear call stand among them for comparison. Calls follow the shape of the dose curve; as a rule, active = well fitted inhibition curve with a large enough effect; inconclusive = small, poorly fitted or top-dose-only effect, or effect the other way; inactive = flat fitted curve, though single readings scatter. Potencies beside an inconclusive call are fits to weak or partial responses and may not hold up.
% is scaled to controls: 0 for no effect and ±100 for the full control effect; potency is read from the fitted curve at half-maximal effect.

Test: Nrf2 qHTS screen for inhibitors; also: nearly all actives have a fitted effect of over 60% in size
Details: A549 ARE-Fluc reporter, luciferase luminescence, 18-24 h; activity change, negative = inhibition: at 46 µM (top of the series)
Summary of the method: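 Quantitative HTS in A549 cells stably bearing an antioxidant response element-firefly luciferase construct. Inhibition of Nrf2-driven transcription was scored by luminescence after 18-24 h of compound exposure at 37 °C.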
With CC(C)CN(CC(C)C)C(=S)Nc1ccc(Cl)cc1 the Potency was active: 25.9 µM. In the case of CCOC(=O)C(=CNc1ccc(NC2=NCC(C)S2)cc1)C(=O)OCC (stereo not drawn), the Potency is reported as inconclusive: 8.2 µM [falling, partial curve, poor fit]. In the case of CCOc1ccccc1Nc1nnc(Cc2ccccc2Cl)c(=O)[nH]1, the Potency is reported as inconclusive: 7.31 µM [activator, partial curve]. For O=c1c2ccccc2c(-c2ccc(Cl)cc2)nn1-c1ccccc1, the Potency was inconclusive: 13 µM [falling, partial curve, poor fit]. For COc1ccc(C(=O)O/N=C(\N)c2ccccc2Cl)cc1OC, the Potency was inconclusive: 29.1 µM [activator, single point]. For Cc1ccc(-c2nnc(Nc3cccc(O)c3)c3ccccc23)cc1S(=O)(=O)N1CCCCC1, the Potency was inconclusive: 32.6 µM [falling, partial curve, poor fit]. With O=C(CCS(=O)(=O)c1ccccc1)Nc1nncs1 the “activity change, negative = inhibition” value was inactive: -14.4%. In the case of CCOC(=O)C1=CN(Cc2ccc(Br)cc2)S(=O)(=O)N(C)C1C (stereo not drawn), the “activity change, negative = inhibition” value is reported as inactive: -21.3%. In the case of Cc1ccc(Nc2nc(N)nc(CSc3nnc(C)s3)n2)cc1, the Potency is reported as inconclusive: 7.31 µM [activator, partial curve]. In the case of CCOc1ccc(OCC)c(NC(=O)c2csc3c2CCCC3)c1, the “activity change, negative = inhibition” value is reported as inactive: 2.09%. For O=C1CCC(C(=O)OC(C(=O)Nc2ccc([N+](=O)[O-])cc2Br)c2ccccc2)=NN1 (stereo not drawn), the Potency was inconclusive: 9.2 µM [falling, partial curve, poor fit]. With Cc1cccc2c(N)c3c(nc12)CCCC3 (tested in a mixture with another compound) the “activity change, negative = inhibition” value was inactive: 6.16%. With COc1cc(C(=O)Nc2ccccc2C(=O)Nc2ccccn2)cc(OC)c1OC the “activity change, negative = inhibition” value was inactive: -9.97%. In the case of CCN1/C(=C/C=C2/SC(=Nc3cccc4ncccc34)N(C)C2=O)Sc2ccccc21, the Potency is reported as inconclusive: 5.8 µM [falling, full curve, poor fit]. With Cc1ccc(C(=O)Nc2sc3c(c2C(=O)NCc2ccco2)CCCC3)cc1 the Potency was inconclusive: 29.1 µM [falling, single point]. For CC1=C(C(=O)N2CCOCC2)C(c2ccccc2F)C2=C(CC(C)(C)CC2=O)N1 (stereo not drawn), the “activity change, negative = inhibition” value was inactive: 3.17%. In the case of CCOC(=O)N1CCC(N2C(=O)c3ccc(C(=O)Nc4ccc(F)cc4F)cc3C2=O)CC1, the Potency is reported as inconclusive: 9.2 µM [activator, partial curve, poor fit]. In the case of CC/C(=N\NC(=O)c1nnn(-c2nonc2N)c1-c1cccc(OC)c1)c1ccc(C)cc1, the Potency is reported as inconclusive: 14.6 µM [falling, partial curve, poor fit]. With COc1ccc(Cc2nnc(Nc3ccc(C)cc3)o2)cc1OC the Potency was inconclusive: 13 µM [falling, partial curve]. In the case of CCOc1ccc(NC(=O)Cn2cc(C(=O)c3ccccc3)c(=O)c3cc4c(cc32)OCO4)cc1, the “activity change, negative = inhibition” value is reported as inactive: -8.79%. In the case of [O-]/[N+](=C\c1ccccc1)c1ccc(Br)cc1, the Potency is reported as inconclusive: 10.3 µM [activator, partial curve]. In the case of Cc1cccc(N(C)Cc2nnc(-c3cccc(Br)c3)o2)c1, the Potency is reported as inconclusive: 29.1 µM [falling, single point]. With CCCCCC(=O)NNC1=NCC(Cc2ccccc2)S1 (stereo not drawn) the Potency was inconclusive: 29.1 µM [activator, single point]. With O=C(NCc1ccc2c(c1)OCO2)c1ccc(Cl)c(S(=O)(=O)NCc2ccccc2)c1 the “activity change, negative = inhibition” value was inactive: 7.06%. With COc1ccc(NC(C)=O)cc1NC(=O)CSc1nc2ncccc2[nH]1 the Potency was inconclusive: 6.51 µM [activator, single point]. For O=C(NCc1ccccc1C(F)(F)F)c1cccc2c1C(=O)c1ccc(N3CCOCC3)cc1S2(=O)=O, the Potency was inconclusive: 9.2 µM [falling, partial curve, poor fit]. With COc1ccc(OCc2cc(C(=O)N(C)C(C)c3ccon3)no2)c(Cl)c1 (stereo not drawn) the Potency was inconclusive: 0.92 µM [activator, full curve, poor fit]. In the case of CCN(CCO)Cc1cc(=O)oc2cc3c(cc12)CCC3, the “activity change, negative = inhibition” value is reported as inactive: -25.9%. In the case of CS(=O)(=O)Nc1ccc(C2=NN(S(=O)(=O)c3ccccc3)C(c3cccs3)C2)cc1 (stereo not drawn), the Potency is reported as inconclusive: 13 µM [falling, partial curve, poor fit]. For CN(C)CC/C=C1/c2ccc(F)cc2Sc2ccc(Cl)cc21, the “activity change, negative = inhibition” value was inactive: 12.9%. For O=C1NC(c2ccccc2)Nc2c1sc(=S)n2-c1ccccc1 (stereo not drawn), the Potency was inconclusive: 32.6 µM [falling, single point]. For CCCC(=O)c1cc(F)c(N2CCN(S(=O)(=O)c3ccccc3)CC2)cc1C, the Potency was inconclusive: 20.6 µM [falling, single point]. For COc1ccc(-c2nnc(SCC(=O)N(C)Cc3ccccc3)o2)cc1OC, the Potency was active: 23.1 µM. For CC(C)OCCCNC(=O)CNC(=O)c1ccc(Cl)c(Cl)c1, the Potency was inconclusive: 6.51 µM [activator, partial curve, poor fit]. For O=C(O)c1cc(/C=C/C(=O)c2cc(F)ccc2O)c2c(c1)COCO2, the “activity change, negative = inhibition” value was inactive: -7.98%. For O=C(Nc1nccs1)C1CCN(S(=O)(=O)c2ccccc2)CC1, the Potency was inconclusive: 7.31 µM [falling, partial curve, poor fit]. For COc1cc(OC)c(N2CC(C(=O)Nc3cc(Cl)ccc3N3CCOCC3)CC2=O)cc1Cl (stereo not drawn), the Potency was inconclusive: 23.1 µM [activator, single point]. For CCOC(=O)/C=C1/N(C)c2ccccc2C1(C)C, the “activity change, negative = inhibition” value was inactive: 20%. With Cc1cc(N=Cc2c(O)n(-c3cccc(Cl)c3)c(=O)c3ccccc23)no1 the Potency was inconclusive: 14.6 µM [falling, partial curve]. In the case of O=C(N/N=C/c1ccc(F)cc1)c1cc(-c2ccccn2)nc2ccccc12, the “activity change, negative = inhibition” value is reported as inactive: -9.77%. For COc1ccc2oc(-c3ccccc3[N+](=O)[O-])cc(=O)c2c1, the Potency was inconclusive: 5.8 µM [activator, partial curve]. With CCN(CC(=O)Nc1ccc2c(c1)OCCO2)C(=O)c1ccccc1Br the Potency was inconclusive: 25.9 µM [activator, single point]. With COc1cc(/C=C2\NC(=O)NC2=O)cc(Br)c1OC the Potency was inconclusive: 13 µM [falling, partial curve, poor fit].
